Results published in the RNAGym collection of RNA variant scans (doi:10.1126/science.aae0568).
Variants at the floor of the assay are shown more often than the library holds them.

B1: tRNA (parent)
chain: GUUCCGUUGGCGUAAUGGUAACGCGUCUCCCUCCUAAGGAGAAGACUGCGGGUUCGAGUCCCGUACGGAACG

Variants of: B1
Experiment: yeast fitness relative to wild type (ratio to wild type); higher = fitter; tRNA-Arg(CCU), competitive growth, 37 C, YPD
Procedure, shortened: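 Genotype frequency changes were the basis for Darwinian fitness relative to wild type. The frequencies came from 100-nucleotide paired-end sequencing of gene amplicons from the start population and each end population of pooled yeast strains with tRNA-Arg(CCU) gene variants at the native locus. Competition ran in YPD at 37°C for 24 hours in six replicates, genotypes needed ≥ 100 starting reads, and estimates < 0.5 were set to 0.5.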

Variant	yeast fitness
GUUCCCCUCGCGUAAUGGUAACGCGUCUCCCUCCUAACGAAAAGACUGCGGGUUUGAGUCCCGUACCGAACG	≤ 0.5
GUUCCGUUGGCGUAAUGGUAACGCGUGUCCCUCCUAAGGAGAAGACUGCGAGUUCGAGUCCCGUACGGAACG	≤ 0.5
GUCCCGUUGGCGUAAUGGUAACGCGUCUCCCUCCUAAGGAGAAGACUGCGGGUUUGCGUCCCGUACAGAACG	≤ 0.5
GUUCCGUUCGCGUAAUGGUAACACGUCUCCCUCCUAAGGAGAAGACUGCAGGUUCGAGUCCCGUACGGAACG	≤ 0.5
GUUCCGUUGGCGUAAUGGUAAUGCGUCUCCCUCCUAAGGACAAGACUGGGGGUUCGAGUCCCGUACGGAACG	≤ 0.5
GUUUCGUUGGCGCAAUGGUAACGCGUCUGCCUCAUAAGGAGAAGACUGCGGGUUCGAGUCCCGUACGGAACG	≤ 0.5
GUUCCGUUGGCGUUAUGGUAACGCGUCUUCCUCCUAUGGAGAAGACUGCGGGUUCGAGUCCCGUAUGGAACG	≤ 0.5
GUUCCGUUGGCGUAAUGGUAACGCGUCUCCCUGGUAAGGAGAAGACUGCGGGUUCGAGUCCCGUACGGAACG	≤ 0.5
GUUCCGUUGGCGUAAUGGUAACGCGUCUCGGUCCUAAGGAGAGGACUGCGGGUUCGAGUCCCGUACGGUACG	≤ 0.5
GUUCCAUUGGCGUAAUGGUAACGCGUCUCCCUCCUAAGGACGGGACUGUGGGUUCGAGUCCCGUACGGAACG	≤ 0.5
GUUCCGUUGGAGAAAUGGUGACGCGUCUCCCUCCUAAGGAGAAGACUGCGGGUUCGAGUCCCGUACGGAACG	0.561
GUUCCGUUGGCAUAAUGGUAGCGCGUCUCCCUCCUAAGGAGAAGACUGGGGGUUCGAGUCCCGUACGGACCG	≤ 0.5
GUUCCGUUGGCGUAAUGGUGAGGCGUGUCUGUCCUAAGGAGAAGACUGCGCGUUCGAGUCACGUACGGCACG	≤ 0.5
GUUCCGUUGGCGUAAUGGUAAAGCGUCUCUCUCCUAAGGAGAAGACUGCGGGUUCGAGUCCCGUACCGAACG	≤ 0.5
GUUCCGUUGGCGUAAAGGUAUCGCGUUUCCCUCCUAAGGUGAAGACUGCGGGUUCGAGUCCCGUACGGAACG	≤ 0.5
GGUCCGUUGGCGUAUUGGUAACGCGUCUCCCUCCUAAGGAGAAGACUGCGGGUUCGAGUCCCGUACGAAACG	≤ 0.5
GUUCCGUUGGCGUAAUGGUAACGCGUCCCCCUCCUAAGGAGAAGACUGUGGGUUCGAGUCCCGUACAGAACG	≤ 0.5
GUUGCGUUGGCGUAAUGGUAACGCGUCUCCAUCCUAAGGAGACGAGUGCGGGUUCGAGUCCCGUAGGGAACG	≤ 0.5
GUUCGGUUGGCGUAAUGGUAACCCGUCUCCGUCCUAAGGAGAAGACUGCGGGUUCGAGUACCGUACGGAUCG	≤ 0.5
GUUGCGUUGGCGUACUGGUAACGCGUCUCCCUCCUAAGGAGAAGAAUGCGGGUUCGAGUCCCGUACGGAACG	≤ 0.5
GUUGCGUUGGCAUAAUGGUAACGCGUCGCCUUCCUAAGGAGAAGACUGCGGGUUCGAGUCCCGUACGGAACG	≤ 0.5
GUUUCGUUGGCGUAAUGGUAACCCGUCUCCCUCCUAAGGAGUAGACUGCGGGUUCGAGUCCCGUACGGAACG	≤ 0.5
GUUCCGUUGGCGUAAUGGUAACGCGUCUCGCUCCUAAGGAGGAGACCGCGGGUUCGAGUCCCGUACGGAACG	≤ 0.5
GUUCCGUUGGCGUAAUGGUAACGCGUCUCCCUCUUAACGAGAAGACUGCGGGUUAGAGUCCCGUACGGAACG	≤ 0.5
GGUCCGUUCGCAUAAUGGUAACGCGUCUCCCUCCUAAGGAGAAGACUGCGGGUUUGAGUCCCGUACGGAACG	≤ 0.5

Variant	yeast fitness
GUCCCGUUGGCGUAAUGGUAACGCGUCUCCCUCCUAAGGAGAAGACUGCGGGUUGGAGUCUCGUACGGAACG	≤ 0.5
GUUCCGUUGGCGUACUGAUAACGGGUCUCCCUCCUAAGGAGAAGACUGCGGGUUAGAGUCCCGUACGGAACG	≤ 0.5
GUUCCGUUGGCGUGAUGGUAACGCAUCUCCCUCCUAAGGAGAAGAGUGCGGGUUCGAGUCCGGUACGCAACG	≤ 0.5
GUUCCGUUGGCGUCAUGGUAACGCGUCUCUCUCCUAAGGACAAGACUGCAGGUUCGAGUCCCGUACGGUACG	≤ 0.5
GUUCCGUUGGCCUAAUGGUAACGCGUCUCCCUCCUAAGGAGGAGGCUGCGGGUUCGAGUCCCGUACGGAACG	0.627
GUUCCGUUGGCGUAUUGGUAACGCGUCUCUCUCCUUAGGAGAGGACUGCGGGUUCGAGUCCCGUACGGAACG	≤ 0.5
GUUCCGUUGGCGUAAUGGAAGCGCGUCUGCCUCCUAAGGAGAAGAAUGCGGGUUCGAGUCCCGUACGGAACG	≤ 0.5
GUUCCGUUGGCGUAAUGGUAACGCGUCUCCCUUCUAAGGGGAAGACUGCGCGUUCGUGUCCCGUACGGAACG	≤ 0.5
GUUCCGUUGGCGUAAUGGUAACGCGUCUCGCUCCUAAGGAGAAGACUGCGGGUUCCAGUCCCGUACGGAACG	≤ 0.5
GUUCAGUUGGCGUAAUGGUAACGCGUCUCCCUCCUAAGGAGAAGACCGCGGGUUCGAGUCGCGUACGGAACG	≤ 0.5
GCUCCGUUGGAGUAAUGGUAACGCGUCUCCCUCCUGAGGAGACGACUGCGGGUUCGAGUCCCGUACGGAACG	≤ 0.5
GUUCCGUCGCCGUAAUGGUAACCCGUCUCCCUCCUAAGGAGAAGACGGCGGAUUCGAGUCACGUACCGAACG	≤ 0.5
GUUCCGUUGGGGGAAUGGUAACGCGUCUCCCUCCUAAGGAGAGGACUGCGGGUUUGAGUCCCGUACGGAACG	≤ 0.5
GUUCCGUUGGCAUAGUGGUAACGCGUCUCCCUCCUCAGGAGAAGACUGCGGGUUCGAGUCCCGUACGGAACG	≤ 0.5
GUUCCGUUGGCGUAAUGGUAAAGCGUCUCCCUCAUAAGGAGAAGACUGCGGGUUCGAGUCCCGUACGGAGCG	≤ 0.5
GUUCCGUUGGCGUCAUGGUAACGCGUCUCCGUCCUAAGGAGAAGACUGCGGGUUCGAGUCCAGUUUGGAACG	0.506
GUUCCGUUGGCGUCAUGGUAACGCGUUUCCCUCCUAAGGAGAAGACUGCGGGUUGGAGUCCCGUACGGAUCG	0.613
GUUCCGUUGGUGUAAUGAUAACCCGUCUCCCUCUUAAGGAGAAGACUGCGGGUUCGAGACCCGUACGGACCG	≤ 0.5
GUUCCGUUGGCGUAAUGGUAACGCGACGCCCUCCUAAGGAGAAGACUGCGGGUUCGAGUCCCGUACGGAGCG	≤ 0.5
GUUCCGUUGGCGUAAUGGUAUCGCGUCUCCAUCCUAAGCAGAAGACUGCGGGUUCGAGUCCCGUACGGAACG	≤ 0.5
GUUCCGUUGGGGUAAUGGUAACGCGUCUGCCUCCUAAAGAGAAAAUUGCGGGUUCGAGUCCCGUACGGAACG	≤ 0.5
GUUCCGUUGGCGUAAUGGUAACGCGUCUCCGUCCUAAGGAGAAGACUGCGAGUUCGCGUCCCGUACGGAACG	≤ 0.5
GUUCCGUUGGCGUAAUGGUAACGCGGCAACCUCCUAAGGAGAAGACUGCGGGUUCGAGUCCCGUACGGACCG	≤ 0.5
GUUCCGGUGGUGUAAUGGUGACGUGUCUCCGUCCUAAGGAGAAGACUGCGGGUUCGAGUCCCGUACGGAACG	≤ 0.5
GUUCCGUUGGCGUAUUGGUAACGCGUGCCCCUCCUAAGGAGAAGACUGCGGGUUCGAGUCCGGUACGGAACG	0.534

Variant	yeast fitness
GUUCCGUUGGCGUAAUGGUAACGCGUCUCCAUCCUAAGGAGGUGACUGCGGGUUCCAGUCCCGUACGGAACG	≤ 0.5
GUUCCGUUGGUGUAAUGGUAACGCGUCUCCCUCCUAAGGAGAAGACUGCCGGUUCGAGUCCCCUACGGAACG	≤ 0.5
GUUCCGUUGGCGUAAUGGUAACGCGUCUCACUCCUAAGGAGAAGACUGCGGGUGCAAGUCCCGUACGGAACG	≤ 0.5
GUUCCGUUGGCGUAAUGGUAAGGCGUCACCGUCCUAAGGAGAAGACUGCGGGUUAGAGUCCCGUACGGAACG	≤ 0.5
GUUCCGUUGGCGUAAUGGUAACGCGUCUGCCUCCUAAGGAGAAGACUGCGGGUUAGAGUCCCGUACGGUACG	≤ 0.5
GUUCCGUUGGUGUAAUGGUAACGCGUUUCCCUCAUAAGGAGAACACUGCGGGUUCGAGUCCAGUACGGAACG	≤ 0.5
GUUCCGUUGGUGGAAUGGAAAGGCAUCUCCCUCCUAAGGAGAAGACUGCGGGUUCGAGUCCCGUACGGUACG	≤ 0.5
GUUCCCUUGGCGUAAUGGCAACGCGUCUCCCACCUAAGGAGCAGACUGCGGGUUCGAGUCCCGUACGGAACG	≤ 0.5
GUUCUGUUGGCGUAAUGGUAAAGCGUUUCCCUCCUAAGGAGAAGACUGCGGGUUCAAGUCCCGUACGGAACG	≤ 0.5
GUUCCGUUGGCGUAAUGGUAACGCGUCUCCCUCCUAAGGAGAAGACUGCGGGUUCAAGUCCCGUGUGGUACG	0.573
GUUCCGUUGGCGUAAUGGUAACGCAUCUCCCUCCUAAGGAGCAGACUGCGGGUUCGAGGCCCGUACUGAACG	≤ 0.5
GUUCCCUUGGCGUAAUGGUAACGCGUCUCCCUCAUAAGGAGAAGACUGCGGGUUCGAGUCCCGUACGGAACG	0.611
GUUCGAUUGGCGUAAUGGUAACGCGUCUCCCUCCUAAGGAGAAGACUGCGGGUUCGAGUACCGUAUGGAACG	≤ 0.5
GUUCCGUUGACGUAAUGGUAACGCGUCUCGCUCCUAAGGAGAAGACUGCGGGUUCGAGUGCCAUUUGGAACG	≤ 0.5
GUUCCGAUGGCGUAAUGCUAACGCGUGUCCCUCCUAAAGAGAAGACUGCGCGUUCGACUCCCGUACGGAACG	≤ 0.5
GUUCCGUUGGCGUAAAGGUAAAGGGUCUCCCUCCUAAGGAGAAGACUGCGGGUUCGAGUCCCAUACGGAACG	≤ 0.5
GUUCCGUUGGCGUAAAGGUAACGCGUCUCCCUCCUAAGGAGUACACUGCGGGUUCGAGUCCCGUACGGAACG	≤ 0.5
GUUCGGUUGGCGUAGUGGUAACGGGUCUCCCACGUAAGGAGAAGACUGCGGGUUCGAGUCCCGUACGAUUCG	0.516
GUUCCUUUGGAGAAAUGGUAACGCGUCUCCCUCCUAAGGAGAAGACUGCGGAUUCGAGUCCCUUACGGAACG	≤ 0.5
GUUCCGUUGGUGUAAUGGUAACGCGUCUCCCUCCUAAGGAAAAGACUGCGGGUUCGAGUCGAGUACGGAACG	≤ 0.5
GUUCCGUUGGCGUAAUGGUAACGCAUUUCCCUCCUAAGGAGAAGACUGCGGGUUCGAGUCCCGUACGGCACG	0.73
GUUCCGUUAGCGUAAUGGUAACCCGUCUGCCUCCUAAGGAGAUGACUGCAGGUUCGAGUCCCGUCCGGAACG	≤ 0.5
GAUCAGUUGGCGUAAUGGUAACGCGUCUCCCUCCUAAGGAGAAGACUGCGGGUUCGAGUCCCGUUCGGAACG	≤ 0.5
GUCCCGUUGGCGUAAUGGUAACACGUGUCCCUACUAAGGAGAAGACUGCGGGUUCGAGUCCCGUACGGAACG	≤ 0.5
GUUCCGUUGGCGUAAUGGUGACGCGUCUCCCUCCUAAGCAGAAGCCUGGGGGUUCGAGUCCCGUACGGAACG	≤ 0.5
